Laboratory results: PubChem BioAssay AID504764 (Drosophila RNAi Screening Center, 2011)
The deposit covers about 22,000 reagents; shown is a random part of those with a known target gene and a result. Of all reagents, 403 (1.9%) are marked active. 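Unnormalised raw counts per well; ratio z-scores behind the hit calls and whether each hit raises or lowers signal are not deposited.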 Names joined by + are all predicted targets of the reagent. Not stated in the record: the amount of reagent.

Screen: 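Knock-downs that raise or lower a Notch target reporter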 (primary screen)
Cell system: Drosophila Kc167 cells
Reagents: long dsRNA against Drosophila genes
Duration: about 5 days (4 days dsRNA, then 24 h after transfection)
Challenge: transfection of constitutively active membrane-tethered Notch lacking the extracellular domain, read 24 h later
Read-out: 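Light from a Notch-responsive E(spl)m3 luciferase reporter under active Notch, with control-promoter and no-Notch reporter wells to normalise; raw counts from paired wells a and b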
Reading the numbers: induced reporter light, run 1, well a and induced reporter light, run 1, well b: higher = more light from the Notch target reporter with active Notch; control promoter light, run 1, well a and control promoter light, run 1, well b: higher = more light from the viral control promoter (cell number, transfection, viability); uninduced reporter light, run 1, well a: higher = more light from the Notch target reporter without active Notch
Hit rule: 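Wells with low control signal or poorly matching duplicates excluded; duplicates averaged; per source plate, z beyond ±2 for induced/control log2 ratio or beyond ±1.8 for induced/uninduced marks a hit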
Meaning of the calls: active = modifier hit (raised or lowered Notch signal); inactive = not a hit

For Rad1 + Sws1 [DRSC00778], the values are induced reporter light, run 1, well a = 1.61e5; induced reporter light, run 1, well b = 1.16e5; control promoter light, run 1, well a = 1.17e5; control promoter light, run 1, well b = 84875; uninduced reporter light, run 1, well a = 9300; inactive. CG15059 (GeneID 32806) [DRSC19633] showed induced reporter light, run 1, well a = 63265; induced reporter light, run 1, well b = 56570; control promoter light, run 1, well a = 75655; control promoter light, run 1, well b = 55045; uninduced reporter light, run 1, well a = 9728; inactive. Silencing of Adi1 (GeneID 326189) [DRSC10945] came out at: induced reporter light, run 1, well a = 2.06e5; induced reporter light, run 1, well b = 1.59e5; control promoter light, run 1, well a = 2.52e5; control promoter light, run 1, well b = 2.47e5; uninduced reporter light, run 1, well a = 12150; inactive. With knock-down of Adi1 (GeneID 326189) [DRSC21485], the screen gave inactive. Depletion of CG9630 (GeneID 40974) [DRSC16527] came out at: induced reporter light, run 1, well a = 1.22e5; induced reporter light, run 1, well b = 1.11e5; control promoter light, run 1, well a = 81800; control promoter light, run 1, well b = 70030; uninduced reporter light, run 1, well a = 9305; inactive. For CG15734 (GeneID 32177) [DRSC19701], the values are induced reporter light, run 1, well a = 1.15e5; induced reporter light, run 1, well b = 1.13e5; control promoter light, run 1, well a = 2.35e5; control promoter light, run 1, well b = 1.87e5; uninduced reporter light, run 1, well a = 8565; inactive.

CG17618 (retired record) + CG45049 [DRSC16163] gave induced reporter light, run 1, well a = 1.93e5; induced reporter light, run 1, well b = 1.59e5; control promoter light, run 1, well a = 2.21e5; control promoter light, run 1, well b = 2.19e5; uninduced reporter light, run 1, well a = 14525; inactive. For CG8461 (GeneID 41758) [DRSC16424], the entry reads induced reporter light, run 1, well a = 1.50e5; induced reporter light, run 1, well b = 1.41e5; control promoter light, run 1, well a = 1.31e5; control promoter light, run 1, well b = 1.08e5; uninduced reporter light, run 1, well a = 11025; inactive. Silencing of Naa15-16 (GeneID 32934) [DRSC19440] gave: induced reporter light, run 1, well a = 1.80e5; induced reporter light, run 1, well b = 1.80e5; control promoter light, run 1, well a = 3.10e5; control promoter light, run 1, well b = 3.27e5; uninduced reporter light, run 1, well a = 15695; inactive. After knock-down of kibra (GeneID 41783) [DRSC14533], the screen gave induced reporter light, run 1, well a = 2.64e5; induced reporter light, run 1, well b = 2.80e5; control promoter light, run 1, well a = 2.61e5; control promoter light, run 1, well b = 2.93e5; uninduced reporter light, run 1, well a = 21905; inactive. kibra (GeneID 41783) [DRSC16257] scored induced reporter light, run 1, well a = 17228; induced reporter light, run 1, well b = 18250; control promoter light, run 1, well a = 14660; control promoter light, run 1, well b = 13770; uninduced reporter light, run 1, well a = 5130; inactive. Against AstC-R2 (GeneID 40019) [DRSC10051], the entry reads induced reporter light, run 1, well a = 1.78e5; induced reporter light, run 1, well b = 1.86e5; control promoter light, run 1, well a = 2.77e5; control promoter light, run 1, well b = 1.89e5; uninduced reporter light, run 1, well a = 10880; inactive.

Klf15 (GeneID 31410) [DRSC17742] showed induced reporter light, run 1, well a = 1.51e5; induced reporter light, run 1, well b = 1.35e5; control promoter light, run 1, well a = 3.02e5; control promoter light, run 1, well b = 2.53e5; uninduced reporter light, run 1, well a = 12345; inactive. Cpsf73 (GeneID 42240) [DRSC16291] gave induced reporter light, run 1, well a = 1.29e5; induced reporter light, run 1, well b = 1.10e5; control promoter light, run 1, well a = 85430; control promoter light, run 1, well b = 83320; uninduced reporter light, run 1, well a = 7670; active. eIF4E7 (GeneID 31059) [DRSC17782] showed induced reporter light, run 1, well a = 99670; induced reporter light, run 1, well b = 1.02e5; control promoter light, run 1, well a = 2.28e5; control promoter light, run 1, well b = 1.90e5; uninduced reporter light, run 1, well a = 7895; inactive. eIF4E7 (GeneID 31059) [DRSC18623] scored induced reporter light, run 1, well a = 1.02e5; induced reporter light, run 1, well b = 93770; control promoter light, run 1, well a = 1.69e5; control promoter light, run 1, well b = 1.86e5; uninduced reporter light, run 1, well a = 8655; inactive. After knock-down of Ubx (GeneID 42034) [DRSC16891], the record shows induced reporter light, run 1, well a = 3.17e5; induced reporter light, run 1, well b = 2.85e5; control promoter light, run 1, well a = 2.42e5; control promoter light, run 1, well b = 2.65e5; uninduced reporter light, run 1, well a = 19970; inactive. Syx1A (GeneID 42854) [DRSC15359] scored induced reporter light, run 1, well a = 1.35e5; induced reporter light, run 1, well b = 1.19e5; control promoter light, run 1, well a = 1.48e5; control promoter light, run 1, well b = 1.33e5; uninduced reporter light, run 1, well a = 12332; inactive.
